# Experimental data published in the supplement of paper PMC8497498.
# This is one part of the list. The data scatter; read single values as rough.
# Experiments:
# Details in all cases: 10 µM
# [1] = system: Plasmodium vivax liver stage (primary human hepatocyte culture); assay: hypnozoite quantity inhibition (% inhibition); higher = more active against hypnozoites
# [2] = system: Plasmodium vivax liver stage (primary human hepatocyte culture); assay: schizont net growth area inhibition (% inhibition); higher = more active against liver schizonts
# [3] = system: primary human hepatocytes; assay: hepatic nuclei reduction relative to DMSO (100 - % of negative control); higher = more toxic to hepatocytes
# [4] = assay mode: Prophylactic (treated before or shortly after infection), fixed day 6 post-infection
# [5] = assay mode: Radical Cure (treated from day 5 post-infection for 3 days), fixed day 8 post-infection
Structure (SMILES),"hypnozoite quantity inhibition [1, 4]","hypnozoite quantity inhibition [1, 5]","schizont net growth area inhibition [2, 4]","schizont net growth area inhibition [2, 5]","hepatic nuclei reduction [3, 4]","hepatic nuclei reduction [3, 5]"
Cc1cc(Nc2cccc(F)c2)nc(NCc2ccccc2)n1,-21.4,47.3,-1.4,3.7,-10%,-5%
COc1ncnc(NS(=O)(=O)c2ccc(N)cc2)c1OC,-3,44,-56.1,54.9,-18%,-4%
COc1cccc(-c2nc3c(N4CCCC4)cccc3n2CC2CCCN2)n1 (stereo not given),38,-2,-23.7,-145,-4%,-21%
COc1cc(-c2cc(-c3ccc(S(C)(=O)=O)cc3)cnc2N)ccc1O,38,1,90.7,91.7,-7%,-9%
OC(CNCc1ccccc1)Cn1c2ccccc2c2ccccc21 (stereo not given),7.6,56.4,21,62,3%,0%
CCOC(=O)C1=C(C)N=c2sc(=Cc3cc(Cl)ccc3O)c(=O)n2C1c1ccc(OC)cc1 (stereo not given),23.2,15.3,11.9,30.6,-3%,13%
CCOc1ccc2nc(C)cc(Nc3ccc(Br)cc3)c2c1,-5,35.9,-3.4,28.3,-4%,-11%
Cc1nc(-c2ccccn2)nc(N2CCC(Cc3ccccc3)C2)c1Cl (stereo not given),52,-15,7.1,-38.3,3%,1%
COc1ccc(C2NCCc3c2[nH]c2ccccc32)cc1CN1CCN(c2ccc(F)cc2)CC1 (stereo not given),29.2,33.6,47.4,53.6,30%,-6%
CCN(CC)CCCNc1ccnc2cc(Cl)ccc12,-16,4,53.5,52.2,3%,-4%
CCn1c(CN2CCN(Cc3ccccc3)CC2)nc2cc(NC(=O)c3cccs3)ccc21,48,18.3,96.3,-67.6,1%,-9%
CN1CCN(c2ccc(Nc3c4ccccc4nc4ccccc34)cc2)CC1,74.5,31.3,103,64.4,4%,13%
O=[N+]([O-])c1cn2c(n1)OC[C@@H](OCc1ccc(OC(F)(F)F)cc1)C2,-76,16,-69.5,32,-10%,-1%
CCOC(=O)c1c(C)n(-c2ccccc2)c2ccc(OC(=O)c3cc(OC)c(OC)c(OC)c3)cc12,-20.9,-14.4,-29.8,-10.2,-4%,-13%
C=CCc1c(C)nc2ccccc2c1O,7,4.7,0.2,41.3,2%,-5%
CC(C)(C)c1ccc(C(=O)Nc2c3c(nn2-c2cccc(Cl)c2)CSC3)cc1,-1.3,26.7,7.7,-31.7,-3%,-5%
COc1cccc(N2CCN(C3=Nc4c(F)cccc4[C@H](CC(=O)O)N3c3cc(C(F)(F)F)ccc3OC)CC2)c1,1,-19,-30.6,-96.1,-4%,-3%
COc1cccc2c(C)nc(N=C(N)N)nc12,3,-2,20.1,-3,-1%,-9%
CCN(CC)Cc1cc(Nc2ccnc3cc(Cl)ccc23)ccc1O,-48,15,51.4,41.4,0%,-7%
Brc1cncc(-c2cc(NCCCn3ccnc3)nc(-c3ccccc3)n2)c1,27,-31,-0.3,-116,3%,-15%
COc1ccc(C2N(C)c3ccccc3N2C)cc1,-23.6,58.8,-36.9,55.5,-9%,3%
CCNC(=O)C(C)Nc1nc(-c2cccnc2)nc2sc(C)c(C)c12 (stereo not given),21,3,13,-64.6,-5%,-7%
CC(C(=O)N1CCCC1)N1CCN(S(=O)(=O)c2ccc(C(C)(C)C)cc2)CC1 (stereo not given),52,16,8.6,10.7,0%,1%
CCN(CC)c1ccc(NC(=O)c2cccs2)cc1,-6.5,15.3,34.8,47.6,-7%,1%
CCCn1c(NC(=O)c2ccc3ccccc3n2)nc2ccccc21,22,-25,-19,22,1%,-5%
COc1ccc(-c2cc3c(SCC(=O)Nc4cc(C(F)(F)F)ccc4Cl)nccn3n2)cc1,30.3,21,-12,18.6,12%,-1%
COc1ccc(C=C2SC(=N)N(c3ccccc3OC)C2=O)cc1,-40,24.4,-120,-18.2,-12%,-3%
O=C(OCc1ccccc1)N1CCC(c2cc(-c3ccncc3)c(-c3ccc(F)cc3)[nH]2)CC1,65,-20,30.1,-59.6,26%,-5%
CCOc1c(Br)cc(C2C(C(=O)OC)=CN(C)C=C2C(=O)OC)cc1OC,-11.7,35.9,24.5,50.9,-14%,-5%
CCN(CCO)CCCC(C)Nc1ccnc2cc(Cl)ccc12 (stereo not given),-26,60,-4.4,83.3,2%,-1%

# Fetched by structure from the list above:
Structure (SMILES),"hypnozoite quantity inhibition [1, 4]","hypnozoite quantity inhibition [1, 5]","schizont net growth area inhibition [2, 4]","schizont net growth area inhibition [2, 5]","hepatic nuclei reduction [3, 4]","hepatic nuclei reduction [3, 5]"
COc1cccc(N2CCN(C3=Nc4c(F)cccc4[C@H](CC(=O)O)N3c3cc(C(F)(F)F)ccc3OC)CC2)c1,1,-19,-30.6,-96.1,-4%,-3%
CC(C(=O)N1CCCC1)N1CCN(S(=O)(=O)c2ccc(C(C)(C)C)cc2)CC1 (stereo not given),52,16,8.6,10.7,0%,1%
